# Assay results taken from the supplement of paper PMC8728848.
# This is one part of the list.
# Tests used:
# Assay in all cases: glycan array binding signal (z-score within array); higher = stronger binding
# Details in all cases: glycan notation: IUPAC condensed, linker removed
# [1] = target: GlcNAc(b1-2)[GlcNAc(b1-4)]Man(a1-3)[GlcNAc(b1-4)][GlcNAc(b1-2)Man(a1-6)]Man(b1-4)GlcNAc(b1-4)GlcNAc
# Procedure, shortened: (§1)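 Negative Z-scores can be read as non-binding. The Z-score is calculated within each array and then averaged across arrays of one protein sequence at different concentrations or buffers and across linkers. Arrays, 3228 in all, were curated from the Consortium for Functional Glycomics database and kept only where the protein sequence was available.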
# [2] = target: GlcNAc(b1-2)[GlcNAc(b1-4)]Man(a1-3)[GlcNAc(b1-4)][GlcNAc(b1-2)[GlcNAc(b1-6)]Man(a1-6)]Man(b1-4)GlcNAc(b1-4)GlcNAc
# Procedure, shortened: as §1
# [3] = target: GlcNAc(b1-2)[GlcNAc(b1-4)]Man(a1-3)[GlcNAc(b1-4)][GlcNAc(b1-2)[GlcNAc(b1-6)]Man(a1-6)]Man(b1-4)GlcNAc(b1-4)[Fuc(a1-6)]GlcNAc
# Procedure, shortened: as §1
# [4] = target: GlcNAc(b1-2)[GlcNAc(b1-6)]Man(a1-6)[GlcNAc(b1-2)Man(a1-3)]Man(b1-4)GlcNAc(b1-4)GlcNAc
# Procedure, shortened: as §1
# [5] = target: GlcNAc(b1-2)[GlcNAc(b1-6)]Man(a1-6)[GlcNAc(b1-2)Man(a1-3)]Man(b1-4)GlcNAc(b1-4)[Fuc(a1-6)]GlcNAc
# Procedure, shortened: as §1
# [6] = target: GlcNAc(b1-2)[GlcNAc(b1-6)]Man(a1-6)[GlcNAc(b1-4)][GlcNAc(b1-2)Man(a1-3)]Man(b1-4)GlcNAc(b1-4)GlcNAc
# Procedure, shortened: as §1
# [7] = target: GlcNAc(b1-3)Fuc
# Procedure, shortened: as §1
# [8] = target: GlcNAc(b1-3)Gal
# Procedure, shortened: as §1
# [9] = target: GlcNAc(b1-3)Gal(b1-3)GalNAc
# Procedure, shortened: as §1
# [10] = target: GlcNAc(b1-3)Gal(b1-4)Glc
# Procedure, shortened: as §1
# [11] = target: GlcNAc(b1-3)Gal(b1-4)GlcNAc
# Procedure, shortened: as §1
# [12] = target: GlcNAc(b1-3)Gal(b1-4)GlcNAc(b1-2)Man(a1-3)[GlcNAc(b1-3)Gal(b1-4)GlcNAc(b1-2)Man(a1-6)]Man(b1-4)GlcNAc(b1-4)GlcNAc
# Procedure, shortened: as §1
# [13] = target: GlcNAc(b1-3)Gal(b1-4)GlcNAc(b1-2)Man(a1-3)[GlcNAc(b1-3)Gal(b1-4)GlcNAc(b1-2)Man(a1-6)]Man(b1-4)GlcNAc(b1-4)[Fuc(a1-6)]GlcNAc
# Procedure, shortened: as §1
# [14] = target: GlcNAc(b1-3)Gal(b1-4)GlcNAc(b1-2)[GlcNAc(b1-3)Gal(b1-4)GlcNAc(b1-6)]Man(a1-6)[GlcNAc(b1-3)Gal(b1-4)GlcNAc(b1-2)Man(a1-3)]Man(b1-4)GlcNAc(b1-4)GlcNAc
# Procedure, shortened: as §1
# [15] = target: GlcNAc(b1-3)Gal(b1-4)GlcNAc(b1-3)Gal(b1-4)GlcNAc
# Procedure, shortened: as §1
# [16] = target: GlcNAc(b1-3)Gal(b1-4)GlcNAc(b1-3)Gal(b1-4)GlcNAc(b1-2)Man(a1-3)[GlcNAc(b1-3)Gal(b1-4)GlcNAc(b1-3)Gal(b1-4)GlcNAc(b1-2)Man(a1-6)]Man(b1-4)GlcNAc(b1-4)GlcNAc
# Procedure, shortened: as §1
# [17] = target: GlcNAc(b1-3)Gal(b1-4)GlcNAc(b1-3)Gal(b1-4)GlcNAc(b1-2)Man(a1-3)[GlcNAc(b1-3)Gal(b1-4)GlcNAc(b1-3)Gal(b1-4)GlcNAc(b1-2)Man(a1-6)]Man(b1-4)GlcNAc(b1-4)[Fuc(a1-6)]GlcNAc
# Procedure, shortened: as §1
# [18] = target: GlcNAc(b1-3)Gal(b1-4)GlcNAc(b1-3)Gal(b1-4)GlcNAc(b1-2)[GlcNAc(b1-3)Gal(b1-4)GlcNAc(b1-3)Gal(b1-4)GlcNAc(b1-6)]Man(a1-6)[GlcNAc(b1-3)Gal(b1-4)GlcNAc(b1-3)Gal(b1-4)GlcNAc(b1-2)Man(a1-3)]Man(b1-4)GlcNAc(b1-4)[Fuc(a1-6)]GlcNAc
# Procedure, shortened: as §1
# [19] = target: GlcNAc(b1-3)Gal(b1-4)GlcNAc(b1-3)Gal(b1-4)GlcNAc(b1-3)Gal(b1-4)GlcNAc(b1-2)Man(a1-3)[GlcNAc(b1-3)Gal(b1-4)GlcNAc(b1-3)Gal(b1-4)GlcNAc(b1-3)Gal(b1-4)GlcNAc(b1-2)Man(a1-6)]Man(b1-4)GlcNAc(b1-4)GlcNAc
# Procedure, shortened: as §1
binder,measurement,setting,value
"HA-61200 (Pseudomonas aeruginosa), Q02SP8_PSEAB (protein) MNKCYALVWNVSQGCWNVVSEGSRRRGKPAGAKAAIASVLALLGATALAPAYALPSGGTVVGGSANGEIHLSGGNSLSVNQKVDKLIANWDSFSVAAGERVIFNQPSSSSIALNRVIGTKASDIQGRIDANGQVFLVNPNGVLFGRGAQVNVGGLVASTLDITDAEFNGNSSRYRFTGPSTNGVLNHGGAITAAEGGSIALLGAQVDNRGTVLAQMGGVGLGAGSDLTLNFDGNKLLDIRVDAGVANALASNGGLLKADGGRVLMAARTANALLNTVVNSQGAIEARSLRGKNGRIVLDG",glycan array binding signal (z-score),[1],-0.626
same,glycan array binding signal (z-score),[2],-0.698
same,glycan array binding signal (z-score),[3],-0.783
same,glycan array binding signal (z-score),[4],-0.12
same,glycan array binding signal (z-score),[5],0.398
same,glycan array binding signal (z-score),[6],0.1
same,glycan array binding signal (z-score),[7],0.303
same,glycan array binding signal (z-score),[8],-0.322
same,glycan array binding signal (z-score),[9],0.694
same,glycan array binding signal (z-score),[10],0.255
same,glycan array binding signal (z-score),[11],-0.897
same,glycan array binding signal (z-score),[12],-0.641
same,glycan array binding signal (z-score),[13],-0.378
same,glycan array binding signal (z-score),[14],0.934
same,glycan array binding signal (z-score),[15],0.209
same,glycan array binding signal (z-score),[16],1.04
same,glycan array binding signal (z-score),[17],1.52
same,glycan array binding signal (z-score),[18],0.581
same,glycan array binding signal (z-score),[19],-0.48

# Given as tab-separated lines: entries from further up.
binder	measurement	setting	value
HA-61200 (Pseudomonas aeruginosa), Q02SP8_PSEAB (protein) MNKCYALVWNVSQGCWNVVSEGSRRRGKPAGAKAAIASVLALLGATALAPAYALPSGGTVVGGSANGEIHLSGGNSLSVNQKVDKLIANWDSFSVAAGERVIFNQPSSSSIALNRVIGTKASDIQGRIDANGQVFLVNPNGVLFGRGAQVNVGGLVASTLDITDAEFNGNSSRYRFTGPSTNGVLNHGGAITAAEGGSIALLGAQVDNRGTVLAQMGGVGLGAGSDLTLNFDGNKLLDIRVDAGVANALASNGGLLKADGGRVLMAARTANALLNTVVNSQGAIEARSLRGKNGRIVLDG	glycan array binding signal (z-score)	[12]	-0.641
same	glycan array binding signal (z-score)	[13]	-0.378
same	glycan array binding signal (z-score)	[14]	0.934
